According to article PMC10731632, “Is Smaller Better? Cu^2+/Cu^+ Coordination Chemistry and Copper-64 Radiochemical Investigation of a 1,4,7-Triazacyclononane-Based Sulfur-Rich Chelator” (Inorganic Chemistry, 2023):

Assay: [64Cu]Cu2+ radiolabeling (radiochemical incorporation, RCI, by radio-UHPLC and radio-TLC)
Conditions: for Maximum apparent molar activity with quantitative [64Cu]Cu2+ incorporation / Radiochemical incorporation (RCI) of [64Cu]Cu2+: 10 min
Description: To assess the ability of NO3S to chelate [^64Cu]Cu^2+ under extremely dilute radiochemical conditions, a radiolabeling investigation was conducted to explore the effects of temperature, pH, and chelator concentration on the radiochemical incorporation (RCI). Parallel experiments were performed as well using NODAGA, one of the current gold standards for [^64Cu]Cu^2+ chelation endowing a NOTA moiety, for comparison purposes. This ligand was also chosen as it contains the same TACN backbone of NO3S. The RCI was determined using both radio-UHPLC and radio-TLC analysis; a representative HPLC radiochromatogram is reported in Figure S25.
[^64Cu]CuCl2 in 0.5 M HCl (molar activity around 40 GBq/nmol) was purchased from Advanced Center Oncology Macerata ACOM (Italy). NO3S and NODAGA stock solutions were prepared in ultrapure water at 1.0 × 10^–3 M and diluted appropriately to give a serial dilution series (1.0 × 10^–4–1.0 × 10^–7 M).
Radiolabeling data were collected through the addition of [^64Cu]CuCl2 diluted in 0.05 M HCl (1 MBq, 10 μL) to a solution containing the ligand (20 μL) diluted in sodium acetate buffer (90 μL, pH = 4.5) or sodium phosphate buffer (90 μL, pH = 7). Different apparent molar activities were tested from 0.1 to 1000 MBq/nmol, corresponding to a final ligand concentration ranging from 1.0 × 10^–4 to 1.0 × 10^–9 M. The reaction mixtures were allowed to react for 10 min at ambient temperature or 95 °C. All radiolabeling reactions were repeated at least in triplicate. Radiochemical incorporation (RCI) was determined via radio-UHPLC using the analytical method previously described.[26] Alternatively, radio-thin layer chromatography (radio-TLC) on silica gel 60 RP-18 F254S plates with sodium citrate (1 M, pH = 4) as the eluent was employed. Under these conditions, free [^64Cu]Cu^2+ migrates with the solvent front (Rf = 1) while [^64Cu]Cu^2+ complexes remain at the baseline (Rf = 0). A Cyclone Plus Storage Phosphor System (PerkinElmer) was used to analyze the radio-TLC plates after their exposure to a super-resolution phosphor screen (type MS, PerkinElmer; Waltham, MA, USA). All of the data were processed with OptiQuant software (version 5.0, PerkinElmer Inc.; Waltham, MA, USA).

Structure (SMILES): CSCCN1CCN(CCSC)CCN(CCSC)CC1 [NO3S]
- Maximum apparent molar activity with quantitative [64Cu]Cu2+ incorporation (pH = 4.5, 95 °C): around 5 MBq/nmol
- Molar activity of quantitative incorporation relative to DO4S (pH = 4.5, room temperature): more than 2 fold
- Maximum apparent molar activity with quantitative [64Cu]Cu2+ incorporation (pH = 4.5, room temperature): 2.5 MBq/nmol
- Radiochemical incorporation (RCI) of [64Cu]Cu2+ (pH = 4.5, room temperature, apparent molar activity up to 2.5 MBq/nmol): > 99%
- Radiochemical incorporation (RCI) of [64Cu]Cu2+ (pH = 4.5, room temperature, molar activities >100 MBq/nmol): < 5%
- Maximum apparent molar activity with quantitative [64Cu]Cu2+ incorporation (pH = 7.0, ambient temperature): ~10 MBq/nmol
- Radiochemical incorporation (RCI) of [64Cu]Cu2+ (pH = 7.0, ambient temperature, 50 MBq/nmol): 39%
- Radiochemical incorporation (RCI) of [64Cu]Cu2+ (pH = 7.0, ambient temperature, 100 MBq/nmol): 28%
